{"source": "PubChem BioAssay AID1117359", "about": "(Southern Research Institute, 2015)", "note": "Several values for one entry are separate records, joined by “and”; a condition that tells them apart may be missing. Identical values can stand only once. Hit rate of the full screen: of about 1,500 compounds, about 460 (31%) were called active.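 Rule for the calls: active = viability at or below 80% at any tested concentration, marking the compound as toxic; inactive = the rest.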 The list shows a part of the results, in another mix than the full data. Entries with a potency or affinity are not part of this list."}
{"assay": "THP-1 cell cytotoxicity, dose response, cytotoxicity control for Vif-APOBEC3G degradation inhibitor project, THP-1 cells (AID 1117359)", "conditions": "THP-1 viability, CellTiter-Glo luminescence, 72 h; at 40 µM (top of the series)"}
{"smiles": "COc1ccc(/C=N\\NC(=O)c2cc(O)c(O)c(O)c2)cc1CN1CCN(c2ccc(F)cc2)CC1", "viability": "inactive: 100%"}
{"smiles": "O=C(NCc1ccccn1)c1ccc2nc(-c3ccco3)c(-c3ccco3)nc2c1", "viability": "inactive: 87.2%"}
{"smiles": "CC1CCC/C(=C\\Nc2ccc(C(=O)O)c(O)c2)C1=O", "note": "(configuration not stated)", "viability": "inactive: 107%"}
{"smiles": "Nn1c(SCC(=O)NCCc2ccc(F)cc2)nnc1C1CCCCC1", "viability": "inactive: 92.2%"}
{"smiles": "CC(C)(C)C1C/C(=C/c2ccco2)C(=O)/C(=C/c2ccco2)C1", "note": "(configuration not stated)", "viability": "inactive: 86%"}
{"smiles": "COc1ccc2c3c(cccc13)N(C)N=C2C", "viability": "inactive: 87.9%"}
{"smiles": "CC1CCN(Cc2c(O)ccc3c2O/C(=C\\c2ccco2)C3=O)CC1", "viability": "inactive: 85.3%"}
{"smiles": "Nc1cccc2c(O)cc(S(=O)(=O)O)cc12", "viability": "inactive: 110%"}
{"smiles": "Cc1c(Cl)cccc1NS(=O)(=O)c1ccc2c(c1)C1C=CCC1C(c1ccc(C(=O)O)cc1)N2", "note": "(configuration not stated)", "viability": "inactive: 110%"}
{"smiles": "O=C1CCCC(O)=C1N=Nc1ccc(C(=O)O)cc1", "viability": "inactive: 111%"}
{"smiles": "O=c1[nH][nH]c2c(N=Cc3ccccc3O)ccc(F)c12", "viability": "inactive: 109% and inactive: 84.9%"}
{"smiles": "CCOc1ccc(N2CC(C(=O)NCC(=O)Nc3ccc(F)c(F)c3F)CC2=O)cc1", "note": "(configuration not stated)", "viability": "inactive: 113%"}
{"smiles": "Cc1c(C)c2ccc(O[C@@H]3O[C@H](CO)[C@H](O)[C@H](O)[C@H]3O)c(C)c2oc1=O", "viability": "inactive: 92.9%"}
{"smiles": "Cc1ccc(C)c(NC(=O)CN(C)C(=O)c2cccc(-n3cccc3)c2)c1", "viability": "inactive: 97.3%"}
{"smiles": "CCn1c(C)nc2cc(C(=O)NNC(=O)CCC3CCCCC3)ccc21", "viability": "inactive: 102%"}
{"smiles": "Cc1nn(Cc2ccccc2)c(C)c1/C=N/NC(=O)c1ccccc1O", "viability": "inactive: 96.5%"}
{"smiles": "O=C(CCS(=O)(=O)c1ccc(Br)cc1)NCCc1ccccc1", "viability": "inactive: 97.9%"}
{"smiles": "CC1(C)N([O-])c2cc([N+](=O)[O-])ccc2[N+]1=O", "viability": "inactive: 93.5%"}
{"smiles": "O=C(O)CCCCC1SCC2NC(=O)NC21", "note": "(configuration not stated)", "viability": "inactive: 118%"}
{"smiles": "Cc1ccnc(NS(=O)(=O)c2ccc(NC(=O)Cc3cccs3)cc2)n1", "viability": "inactive: 109%"}
{"smiles": "Cc1nc(-c2noc(-c3ccccc3Cl)n2)c(C(F)(F)F)o1", "viability": "inactive: 86.2%"}
{"smiles": "COc1cc(/C=N/NC(=O)c2ccc(NS(=O)(=O)c3cccs3)cc2)cc(OC)c1O", "viability": "inactive: 93.2%"}
{"smiles": "COC/C=C/C1=CC2=CC(=O)C(C)(OC(=O)CCC(=O)OC)C(=O)C2=CO1", "note": "(configuration not stated)", "viability": "inactive: 97.6%"}
{"smiles": "O=C(Nc1ccc(COc2ccccc2)cc1)Oc1ccccc1N1CCOCC1", "viability": "inactive: 104%"}
{"smiles": "CC(C)(C)NCCCCOc1ccc(F)cc1", "viability": "inactive: 103%"}
{"smiles": "Cc1n[nH]c(=S)n(NC(=O)/C=C/C(=O)Nn2c(=S)[nH]nc(C)c2=O)c1=O", "viability": "inactive: 84.8%"}
{"smiles": "CC1(C)CC2(CC(c3ccccc3F)c3ccc(O)c(O)c3O2)NC(=S)N1", "note": "(configuration not stated)", "viability": "inactive: 94%"}
{"smiles": "O=C(C1CCCC1)N1CCCC(Nc2ccc(F)cc2)C1", "note": "(configuration not stated)", "viability": "inactive: 96.4%"}
{"smiles": "Cc1ccc(/C=C2\\SC(=S)N(c3cccnc3)C2=O)o1", "viability": "inactive: 98.8%"}
{"smiles": "O=C(c1cc2ccccc2o1)N1CC=C(c2ccccc2)CC1", "viability": "inactive: 81.2%"}
{"smiles": "NS(=O)(=O)c1ccc(N/N=C/c2ccc(O)c(O)c2O)c([N+](=O)[O-])c1", "viability": "inactive: 98.6%"}
{"smiles": "Cc1ccc(N=Cc2nc(-c3ccc(C)cc3)oc2O)cc1", "viability": "inactive: 98.1%"}
{"smiles": "NC(=O)c1ccc(N2CCN(c3ncc(C(F)(F)F)cc3Cl)CC2)cc1", "viability": "inactive: 90.5%"}
{"smiles": "COc1ccc(C(CNCC(=O)Nc2ccccc2F)N(C)C)cc1", "note": "(configuration not stated)", "viability": "inactive: 94.4%"}
{"smiles": "CCC(C)(C)n1nnnc1C(c1ccc2ncccc2c1)N1CCN(c2ccc(O)cc2)CC1", "note": "(configuration not stated)", "viability": "inactive: 106%"}
{"smiles": "O=S(=O)(O)c1cc(O)c(N=Nc2ccc(O)cc2O)c2ccccc12", "viability": "inactive: 104%"}
{"smiles": "CS(=O)(=O)c1ccc2nnn(OCC(=O)Nc3cccc(C#N)c3)c2c1", "viability": "inactive: 88.4%"}
{"smiles": "O=C(Nc1cccnc1)c1sc(Nc2ccccc2F)nc1-c1ccccc1", "viability": "inactive: 89%"}
{"smiles": "CCC(C)Cn1c(O)cc2nn(-c3nc4ccccc4s3)c(=O)c-2c1C", "note": "(configuration not stated)", "viability": "inactive: 94.1%"}
{"smiles": "O=C(/C=C/c1ccco1)N(c1ccccn1)c1ccccn1", "viability": "inactive: 105%"}
{"smiles": "O=C(O)c1ccc(N2C(=O)c3cccnc3C2=O)cc1", "viability": "inactive: 81.2%"}
{"smiles": "COC(C[C@H]1O[C@@H]1[C@@H](O)COCc1ccccc1)OC", "viability": "inactive: 113%"}
{"smiles": "COc1ccc(-c2cc(-c3ccco3)[nH]c(=O)c2C#N)cc1", "viability": "inactive: 101%"}
{"smiles": "CC12CCC(C(=O)Nc3ccc(Br)cn3)(OC1=O)C2(C)C", "note": "(configuration not stated)", "viability": "inactive: 99.9%"}
{"smiles": "CNc1ccccc(C(=O)/C=C/c2ccccc2OC)c1=O", "viability": "inactive: 89.9%"}
{"smiles": "COc1ccc(S(=O)(=O)NNC(=O)c2sccc2-n2cccc2)cc1", "viability": "inactive: 93.2%"}
{"smiles": "CN(C)c1ccc2cc(S(=O)(=O)O)cc(O)c2c1", "viability": "inactive: 88.2%"}
{"smiles": "N=C1S/C(=C\\c2ccco2)C(=O)N1c1ccc2c(c1)OCO2", "viability": "inactive: 88.7%"}
{"smiles": "CCn1c(SC(C)C(=O)O)nc2sc3c(c2c1=O)CCC3", "note": "(configuration not stated)", "viability": "inactive: 104%"}
{"smiles": "CC(=O)[C@@]1(O)CC[C@H]2[C@@H]3CCC4=CC(=O)CC[C@]4(C)[C@H]3CC[C@@]21C", "viability": "inactive: 99.5%"}
{"smiles": "Oc1cc2c(cc1O)C1c3ccc(O)c(O)c3OCC1(O)C2", "note": "(configuration not stated)", "viability": "inactive: 87.1%"}
{"smiles": "COc1ccc(N2C(=O)CC(Nc3ccc(N4CCOCC4)cc3)C2=O)c(OC)c1", "note": "(configuration not stated)", "viability": "inactive: 100%"}
{"smiles": "Cc1ccc(N/N=C/c2c(C)c(C#N)c(=O)n(C)c2O)cc1C", "viability": "inactive: 109%"}
{"smiles": "COc1cccc(-c2nc(-c3cccs3)no2)c1", "viability": "inactive: 84%"}
{"smiles": "Nc1ccc(N(CCO)CCO)cc1", "viability": "inactive: 98.5%"}
{"smiles": "CCOc1ccc(S(=O)(=O)N2CC(=O)Nc3ccccc32)cc1C#N", "viability": "inactive: 89.5%"}
{"smiles": "COc1cccc2c1NC(C(=O)O)C1CC=CC21", "note": "(configuration not stated)", "viability": "inactive: 102%"}
{"smiles": "CC(=O)Nc1ccc(S(=O)(=O)Nc2nc3ccccc3nc2Nc2ccc(C(=O)O)c(O)c2)cc1", "viability": "inactive: 99.1%"}
{"smiles": "CCC1=C2CC[C@H]3C(=O)NC(=O)[C@H]3[C@H]2[C@@]2(Cc3ccccc3)C(=NCC(=O)OC)OC(=O)N2C1=O", "viability": "inactive: 93.3%"}
{"smiles": "COc1ccc(CCNS(=O)(=O)CCNC(=O)c2ccc3c(c2)OCO3)cc1", "viability": "inactive: 84.2%"}
{"smiles": "C[C@H](NC(=O)NCc1cccs1)C(=O)O", "viability": "inactive: 93.5%"}
{"smiles": "COc1ccccc1CN(C)C(=O)CN1CCN(C(=O)c2cccs2)CC1", "viability": "inactive: 90.8%"}
{"smiles": "COc1cc(NC(=O)c2noc3c2CCC3)c(OC)cc1Cl", "viability": "inactive: 85.2%"}
{"smiles": "CCCCn1c(SCC(=O)Nc2ccc3c(c2)OCCO3)nnc1C(CC)N(C)C", "note": "(configuration not stated)", "viability": "inactive: 95.5%"}
{"smiles": "Cc1ccc(-n2nc(C)c3c(C)c(CCC(=O)O)c(C)nc32)cc1", "viability": "inactive: 95.3%"}
{"smiles": "N=C1/C(=C/c2ccc(Br)o2)C(=O)N=C2SC(CC(=O)N3CCCC3)=NN12", "viability": "inactive: 100% and inactive: 84.6%"}
{"smiles": "COc1ccc(CNC(=O)C2CCCN(S(=O)(=O)c3c(C)nn(C)c3C)C2)cc1", "note": "(configuration not stated)", "viability": "inactive: 89.9%"}
{"smiles": "CN(C(=O)COC(=O)c1cc(-c2ccco2)nc2ccccc12)C1CCS(=O)(=O)C1", "note": "(configuration not stated)", "viability": "inactive: 111%"}
{"smiles": "CC(=O)Nc1ccc(S(=O)(=O)Nc2nc3ccccc3nc2Nc2ccc(N)cc2)cc1", "viability": "inactive: 106%"}
{"smiles": "O=C(CC1SCCNC1=O)Nc1ccc(Cl)cc1", "note": "(configuration not stated)", "viability": "inactive: 98.6%"}
{"smiles": "CN(C1CCCCC1)S(=O)(=O)c1cccc(C(=O)OCC(=O)NC2CCCc3ccccc32)c1", "note": "(configuration not stated)", "viability": "inactive: 98.4%"}
{"smiles": "O=C(Nc1ccc(N2CCCCC2)cc1)c1cc([N+](=O)[O-])cc([N+](=O)[O-])c1", "viability": "inactive: 86.7%"}
{"smiles": "COC(=O)c1ccc(C)c(NC(=O)CCSc2ccccc2)c1", "viability": "inactive: 91.3%"}
{"smiles": "CCOc1cccc(=O)c2c(C)n(-c3ccc(C(=O)O)cc3)c(C)c12", "viability": "inactive: 99.8%"}
{"smiles": "Cc1[nH]n(-c2nc(-c3ccccc3F)cc(=O)[nH]2)c(=O)c1CCO", "viability": "inactive: 93.4%"}
{"smiles": "CC(=O)c1c(C)[nH]c(C(=O)OCC(=O)C(C)(C)C)c1C", "viability": "inactive: 92.6%"}
{"smiles": "CC1=CC2(O)OCCN(CCO)C2=CC1=O", "note": "(configuration not stated)", "viability": "inactive: 81.2%"}
